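Whole-cell assay for inhibitors of Mycobacterium tuberculosis growth, labelled Cornell in the record; the read-out is not stated. The concentration is filed as 10 mM, unlikely as a test dose, so the dose is not known. The record gives no direction; compounds strong in two other growth screens of this library score well above the rest, so higher reads as stronger inhibition. About 53,000 compounds were tested under these conditions; 1.7% (about 900) showed 50% or more at least once.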

Results are given as percent effect. How 0% and 100% were set is not recorded. Most values in the screen are low, and negative values occur. This is an unselected part of the compounds tested.

| Compound | effect |
|---|---|
| `c1ccc2oc(CCCN3CCCC3Cn3cncn3)nc2c1` (stereo not given) | 23.86 |
| `O=C(O)C1(Cc2cc(-c3ccccc3F)no2)CCOCC1` | -6.71 |
| `COCC1CC2(CCN(S(=O)(=O)C3CC3)CC2)CN1c1ncccn1.O=C(O)C(F)(F)F` (stereo not given) | 2.652 |
| `[H][C@@]12C[C@H](c3nnc(C)o3)CN(S(=O)(=O)CC(C)C)[C@]1([H])CCO2` | 27.83 |
| `Cc1cc2nc(-c3ccccc3)cc(NCC3CCS(=O)(=O)C3)n2n1` (stereo not given) | 0.329 |
| `Cc1ccc(CN(Cc2ncc[nH]2)C2CC(C)(C)NC(C)(C)C2)o1.O=C(O)CC(O)(CC(=O)O)C(=O)O` | -40.1 |
| `Cc1ccc(C2CN(c3nnc(C(F)F)s3)CCO2)c(C)c1` (stereo not given) | 21.96 |
| `CC(Cn1cccn1)NCc1nc(-c2cccs2)no1` (stereo not given) | 28.55 |
| `O=C(CCc1cc(O)no1)N1CCC(Cc2ccc(F)cc2)CC1` | 31.07 |
| `CC(C)CNC(=O)N1CCC2(CCCO2)C1` (stereo not given) | -40.38 |
| `COc1ccc2c(ccn2CC(=O)N2CCCC2Cn2cccn2)c1` (stereo not given) | 24.26 |
| `Cc1cc(C2CCCN2C(=O)NCc2ccccn2)on1` (stereo not given) | 17.23 |
| `COc1ccc(C(C)NCCc2ccc(NC(C)=O)cc2)c(OC)c1` (stereo not given) | 20.88 |
| `Cc1cc(NC(=O)CN2CCCC2c2noc(C(C)C)n2)no1` (stereo not given) | -60.71 |
| `Cc1cc(C(=O)N2CCc3ncc(CN4CCCC4)n3CC2)no1.O=C(O)C(F)(F)F` | -4.689 |
| `CS(=O)(=O)Cc1ccc(NC(=O)Cc2cccnc2)cc1F` | 22.04 |
| `O=C(Cc1cccnc1)N1CCC(OCc2ccccc2)CC1` | -9.212 |
| `CC(C)N(CCCNC(=O)C1CC1)S(C)(=O)=O` | -40.82 |
| `COc1ccc(NC(=O)N2CCCCCC2c2ccncc2)cn1` (stereo not given) | 35.27 |
| `COC1CCN(C(=O)c2nn(-c3ccc(C(C)C)cc3)cc2O)CC1` | 4.649 |
| `CN(C(=O)Cc1ccccc1F)C1CCN(c2ccccn2)CC1` | 12.55 |
| `COc1ccc(CN2CCCC2)cc1Oc1cccc(C#N)n1` | 7.231 |
| `[H][C@@]12COC[C@]1([H])[C@@H](OCc1csc(C)n1)CN2C(=O)c1cccnc1` | -4.179 |
| `Cc1cncc(C2CCN(C(=O)c3ccc(-n4cccn4)nc3)CC2)n1` | 5.449 |
| `Oc1nc(-c2cnccn2)nc2c1CCN(Cc1ccccn1)C2` | 8.019 |
| `Cc1cccc(-c2nc(N)nc3c2CN(C(=O)c2cc(C)n[nH]2)C3C)c1` (stereo not given) | 21.27 |
| `O=C(CCN1CCN(c2ccc3nncn3n2)CC1)NC1CCCC1` | 7.986 |
| `Cc1ccc(S(=O)(=O)CCC(=O)NCc2nnc3n2CCC3)cc1` | 12.07 |
| `c1ccc(Cn2cccn2)c(CNCC2CNc3ccnn3C2)c1` (stereo not given) | -42.61 |
| `O=C(c1c2c(N3CCCC3)ncnc2n2ccccc12)N1CCCC1` | 36.14 |
| `CSc1ccc(-c2nc(CN3CCC(C(N)=O)CC3)c(C)o2)cc1` | -73.2 |
| `Cc1noc2ncc(C(=O)N3CCCC(n4ccnc4C)C3)cc12` (stereo not given) | -4.29 |
| `CCS(=O)(=O)c1cccc(C(=O)Nc2cccc3c2C(=O)N(C)C3=O)c1` | -4.451 |
| `Cn1cc(CN2CCCC(CCc3ccc(F)cc3)C2)cn1` (stereo not given) | -26.73 |
| `NC1CCCc2nc(-c3ccccc3)ncc21` (stereo not given) | 26.06 |
| `Cc1ccc(CN2CCN(c3cncc(N(C)C)n3)CC2=O)cc1C` | 19.36 |
| `CC1CN(C(=O)c2nccnc2N)c2ccc(F)cc2O1` (stereo not given) | 21.21 |
| `CC(C)C1CN(c2ncccn2)CCC(=O)N1Cc1ccc(F)cc1` (stereo not given) | 14.98 |
| `CCC(CC)C(=O)N1CCN(Cc2cc(-c3ccncc3)nn2C)CC1` | 6.926 |
| `CC(=O)NCCC(=O)N(C/C=C/c1ccccc1)CCO` | -18.38 |
| `O=C(O)C(F)(F)F.[H][C@@]12CCN(C3CCCCC3)C[C@]1(C(=O)N1CCCO1)CCO2` | 6.434 |
| `Cc1cccc(CN2C(=O)CCC23CCN(Cc2cccn2C)CC3)n1.O=C(O)C(F)(F)F.O=C(O)C(F)(F)F` | 15.95 |
| `[H][C@@]12CCN(C[C@@H]1c1cc(-c3cccs3)nn1C)[C@@H](CNS(C)(=O)=O)C2` | 3.613 |
| `N#Cc1ccc(S(=O)(=O)Nc2cnn(C3CCOCC3)c2)cc1` | 9.896 |
| `O=C1CC(c2ccsc2)c2sc(C(=O)O)c(-c3ccc(F)cc3)c2N1` (stereo not given) | 105.2 |
| `Cc1ccccc1S(=O)(=O)N1CCC(c2[nH]ncc2C)C1` (stereo not given) | -6.073 |
| `O=C(O)C(F)(F)F.O=C(O)C(F)(F)F.[H][C@]12CCN(c3ncccn3)[C@@]1([H])CC[C@H](COCc1cccnc1)O2` | 16.81 |
| `Cc1nccc(N2CCCC(C)(c3[nH]ncc3C(N)=O)C2)n1` (stereo not given) | -5.042 |
| `Nc1cc(CC2COc3ccccc3C2)ccn1` (stereo not given) | -0.9423 |
| `COC(=O)C(NC(=O)COC1CCCC1)c1cc(F)ccc1F` (stereo not given) | 63.8 |
| `Cc1cnn(CC2CN(CC(=O)Nc3ccnn3C(C)C)CCO2)c1` (stereo not given) | 8.452 |
| `C=C(C)CN1C(=O)CC(Cc2ccc(F)cc2)C1=O` (stereo not given) | 11.32 |
| `CC(C)Nc1ccnc(-c2ccnc3c2ccn3C)n1` | 21.75 |
| `CCOC(=O)C1CCN(C(=O)Cc2c(C)nc(C)[nH]c2=O)CC1` | -50.17 |
| `Cc1sc2c(C3CCCN(C)C3)nc(C)n2c1C` (stereo not given) | -58.61 |
| `Cc1nc2c(c(NCc3nc4ccccc4s3)n1)CCNCC2` | 90.34 |
| `COc1ccccc1CC1CCN(C(=O)CCN2CCOC2=O)CC1` | 14.58 |
| `Cn1nccc1C(=O)N1CCC2(CC1)COC(COc1ccccn1)C2.O=C(O)C(F)(F)F` (stereo not given) | 10.07 |
| `CC(Cn1cccn1)NC(=O)Nc1ccc(N2CCCCC2)nc1` (stereo not given) | 41.18 |
| `O=C(NCCSCc1ccco1)c1ccc(N2CCOCC2)cc1` | 43.51 |
| `N#Cc1c(Cl)nsc1NCCCN1C(=O)COc2ccccc21` | 41.8 |
| `CN1CCN(C(=O)c2cn(Cc3ccccc3)c3ncccc23)CC1` | 4.496 |
| `COc1ccc(-c2cccc(CC3(C(=O)O)CCOCC3)c2)cc1` | 10.8 |
| `CSCC1CCN(C(=O)Cn2ncc(N3CCCCC3)cc2=O)CC1` | 17.09 |
| `O=C(O)c1ccc(N2CCC(Oc3ccc(Cl)cc3)CC2)nc1` | 34.51 |
| `COc1cccc(CN(C)Cc2nc(C(C)C)no2)c1` | -5.389 |
| `CCCC(=O)NC1CCCN(Cc2cccs2)C1` (stereo not given) | -13.13 |

For reference, 6 entries once more:

- O=C(O)C(F)(F)F.[H][C@@]12CCN(C3CCCCC3)C[C@]1(C(=O)N1CCCO1)CCO2 : 6.434%
- Nc1cc(CC2COc3ccccc3C2)ccn1 (stereo not given) : -0.9423%
- COc1ccc(-c2cccc(CC3(C(=O)O)CCOCC3)c2)cc1 : 10.8%
- Cc1cnn(CC2CN(CC(=O)Nc3ccnn3C(C)C)CCO2)c1 (stereo not given) : 8.452%
- Cc1sc2c(C3CCCN(C)C3)nc(C)n2c1C (stereo not given) : -58.61%
- N#Cc1ccc(S(=O)(=O)Nc2cnn(C3CCOCC3)c2)cc1 : 9.896%

Data taken from ChEMBL document CHEMBL3988442, “University of Dundee, Small-Polar-MMV Screening Library” (2021).